Patent publication US11377425B1, “Small molecule modulators of IL-17” (LEO Pharma A/S, priority 2018, dated 2022)

Protein sequences, listed by entry. Tags and fused reporters are not part of them. Residues count along the entry.
UniProt Q16552, 24-155 limits assumed: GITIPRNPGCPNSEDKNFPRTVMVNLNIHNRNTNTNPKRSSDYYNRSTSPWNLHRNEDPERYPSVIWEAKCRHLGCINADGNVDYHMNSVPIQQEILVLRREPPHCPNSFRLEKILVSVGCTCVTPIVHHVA

Target: human IL-17AA (Homo sapiens, UniProt Q16552)
Assay: IL-8 release assay in human epithelial keratinocytes adult (HEKa)
Details: read-out: Rel EC50 IL-8 release assay, HEKa cells, 3 ng/mL HEK-human IL-17AA + 10 ng/mL human TNFalpha
Method: Example 138: IL-8 Release Assay in Human Epithelial Keratinocytes Adult (HEKa)
Keratinocytes were seeded at 3500 cells/well in 384-well ViewPlates (Perkin Elmer) in Epilife medium (Thermo Fisher) containing human keratinocyte growth supplement (HKGS) without hydrocortisone and incubated in a humid incubator at 37° C. 5% CO2, overnight. The following day growth medium was removed and 25 μl fresh Epilife medium added. 75 nL test compound in 100% DMSO was added into each well reserved for test compounds, by the use of acoustic pipetting. The remaining wells received an equal volume of DMSO only, as vehicle control, or terfenadine in DMSO, as a positive control for any cytotoxic compounds. Subsequently, another 25 μL Epilife medium was added to each well. […] IL-8 released from the cells was measured by the use of a commercial homogenous time-resolved fluorescence (HTRF) assay (CisBio). […] Time-resolved fluorescence was read at 665 vs 620 nm, with excitation at 320 nm, and IL-8 levels calculated as percent of controls. […] Cytotoxicity was measured in the cell-containing Viewplates following addition of 7 μL PrestoBlue (Thermo Fisher) and incubation for 2.5-3 hours at room temperature, by measuring fluorescence at 615 nm (excitation at 535 nm). Fluorescence was directly proportional to the amount of metabolic activity. Reduction of fluorescence signal indicated cytotoxicity. […]

| Compound | EC50 (tested form: disodium salt) [nM] | EC50 [nM] |
| --- | --- | --- |
| CCn1nccc1C(=O)N[C@H](C(=O)Nc1ccc(-c2c(C)nn(COP(=O)(O)O)c2C)cc1)C(C1CC1)C1CC1 | < 100 |  |
| Cc1nn(CO)c(C)c1-c1ccc(NC(=O)[C@@H](NC(=O)c2ccnn2C(C)C)C(C2CC2)C2CC2)cc1 |  | < 100 |

Read-outs that look alike come from different tables or passages of the source. The match of structure and compound is tentative.
